Laboratory results published in patent US20230368862A1, “BINDING SITE IN TYPE 2 RYANODINE RECEPTOR” (The Trustees of Columbia University in the City of New York, priority 2021, published 2023).
No constants are given. Whether binding was seen depends on the method and setting. Some entries that bind do so weakly or less than the wild type.

Amino acid sequences for entries named in this document (tags omitted). A change or cut given only in a name is not applied to a line headed by its entry.
UniProt P68106: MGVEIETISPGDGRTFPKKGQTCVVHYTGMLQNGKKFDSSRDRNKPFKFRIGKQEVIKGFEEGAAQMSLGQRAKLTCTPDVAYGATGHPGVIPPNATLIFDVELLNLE

Assays:
[1] = biological target: Recombinant human RyR2 (wild type), detergent-solubilised from HEK293 cells, before PKA or phosphatase treatment (human) (UniProt Q92736); test: affinity purification: RyR2 with GST-calstabin-2 held on a GSTrap HP column and eluted with glutathione
[2] = biological target: Recombinant human RyR2-R2474S, detergent-solubilised from HEK293 cells, before PKA treatment (human) (UniProt Q92736); test: as above
[3] = biological target: PKA phosphorylated human RyR2-R2474S (CPVT mutant, recombinant, from HEK293 cells) (human) (UniProt Q92736); test: cryo-EM model of the RyR2 complex (initial model built on primed PKA RyR2-R2474S)

Substance: Recombinant human GST-calstabin-2 (from UniProt P68106 1-108)
- binding [1]: binds
- binding [2]: binds

Substance: calstabin-2 (PPIase FKBP1B, FKBP12.6), human (from UniProt P68106 1-108)
- binding [3]: binds
